Source: patent US10858316B2, “Small molecule inhibitors of the MCL-1 oncoprotein and uses thereof” (University of Maryland, Baltimore, priority 2015, dated 2020)
At least one compound was matched to its structure with a doubt left.

Sequences of proteins named here, by UniProt entry; tags and fusion partners are left off. Residues count along the entry.
UniProt Q07820, 172-327: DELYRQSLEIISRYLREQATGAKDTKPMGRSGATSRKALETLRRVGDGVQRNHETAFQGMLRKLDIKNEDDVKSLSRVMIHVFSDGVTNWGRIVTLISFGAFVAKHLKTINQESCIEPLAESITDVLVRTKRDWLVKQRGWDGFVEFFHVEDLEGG

Biological target: Mcl-1 (Homo sapiens (Human), UniProt Q07820)
Experiment: Fluorescence polarization competition assay (FPCA), Mcl-1 / FITC-Bak BH3 peptide
Type: binding
Conditions: ΔG=−RTlnKi from experimental Ki
From the text: The tagged protein was initially purified from the crude cell lysate by immobilized metal affinity chromatography (IMAC) chromatography (GE Healthcare Life Sciences), and after dialysis to remove the imidazole the affinity tag was cleaved using PreScission Protease (GE Healthcare Life Sciences). A Sephacryl S-200 size exclusion column was used as a final purification step before the protein was concentrated with a 10,000 MWCO centifugal filter concentrator (Millipore).
Fluorescence polarization experiments were conducted using a BMG PHERAstar FS multimode microplate reader equipped with two PMTs for simultaneous measurements of the perpendicular and parallel fluorescence emission. The assays were performed in black polypropylene 384-well microplate (Costar) with a final volume of 20 microliter. […] Regression analysis was carried out using Origin (OriginLab, Northampton, Mass.) to fit the data to the Hill equation (1) to determine the initial binding affinity (KD) and the IC50 in the FPCA. For the fluorescence polarization competition titrations, an equation derived by Nikolovska-Coleska et al. was used to calculate the Ki from the IC50 data.
The target molecules were assayed for their abilities to disrupt the Mcl-1-Bak-BH3 PPI in a fluorescence polarization competition (FPC) assay with Mcl-1 and FITC-labeled Bak-BH3 peptide. […]

COC(=O)c1cc(S(=O)(=O)N(CC(C)C)c2ccc(Br)cc2)c2ccccc2c1OC [Compound 3cc, Methyl 4-(N-(4-bromophenyl)-N-isobutylsulfamoyl)-1-methoxy-2-naphthoate]
Mcl-1 Exp ΔG: >-4.50 kcal/mol
